# Source: paper PMC12431657, “Discovery and mechanistic insights of dibenzoylmethane as a broad spectrum inhibitor of coronavirus” (PLOS Pathogens, 2025)
# Where a name gives a salt, the structure may show the parent alone. Read-outs that look alike come from different tables or passages of the source. The campaign covered roughly 3,300 compounds. About 95 (3%) showed an effect of 50% or more. The list shows a part of the results.
# Tested on: HCoV-229E
# Set-up: species or system Huh-7; HTS, protection from HCoV-229E induced cell death, luminescent cell viability (CellCounting-Lite 2.0), inhibition rate
# Conditions: 24 h post infection, 1 h compound pre-incubation, 10 µM, inhibitor
compound,measurement,setting,value
"CC1=C[C@]23C(=O)[C@H](C=C4COC(C)(C)OC4C24OC(C)(C)OC14)[C@@H]1[C@H](CC3C)C1(C)C (some centres unmarked) [Ingenol-3,4,5,20-diacetonide]",229E Inhibition rate,,11.6%
COc1ccc(-c2cc(=O)c3c(O)cc(O)cc3o2)cc1-c1c(O)cc(O)c2c(=O)cc(-c3ccc(O)cc3)oc12 [Bilobetin],229E Inhibition rate,,22.4%
C[C@H](CCC(=O)NCC(=O)O)[C@H]1CC[C@H]2[C@@H]3[C@H](O)C[C@@H]4C[C@H](O)CC[C@]4(C)[C@H]3C[C@H](O)[C@]12C [Glycocholic acid (hydrate)],229E Inhibition rate,"229E Inhibition rate, 24 h",4.1%
CN=C(N)N [1-Methylguanidine hydrochloride],229E Inhibition rate,,10.7%
C=C(CCC=C(C)C)[C@H]1CC[C@]2(C)[C@@H]1[C@H](O)C[C@@H]1[C@@]3(C)CC[C@H](O)C(C)(C)[C@@H]3[C@@H](O[C@@H]3O[C@H](CO)[C@@H](O)[C@H](O)[C@H]3O[C@@H]3O[C@@H](C)[C@H](O)[C@@H](O)[C@H]3O)C[C@]12C [Ginsenoside Rg6],229E Inhibition rate,,10.2%
C=C[C@H]1[C@H](O[C@@H]2O[C@H](CO)[C@@H](O)[C@H](O)[C@H]2O)OC=C2C(=O)OCC[C@]21O [Swertiamarin],229E Inhibition rate,,14.3%
CC(C)CCC[C@@H](C)[C@H]1CC[C@@]2(C)C3=C(CC[C@]12C)[C@@]1(C)CC[C@H](O)C(C)(C)[C@@H]1CC3 [Dihydrolanosterol],229E Inhibition rate,,15.4%
C/C=C/c1cc(OC)c2c(c1)[C@@H](C)[C@H](c1ccc3c(c1)OCO3)O2 [Licarin B],229E Inhibition rate,,8.7%
C[C@H](CCC(=O)O)[C@H]1CC[C@H]2[C@@H]3C[C@H](O)[C@@H]4C[C@H](O)CC[C@]4(C)[C@H]3CC[C@]12C [Hyodeoxycholic acid],229E Inhibition rate,,36.7%
O=C1N[C@@H](Cc2ccc(O)cc2)C(=O)N2CCC[C@@H]12 [Maculosin],229E Inhibition rate,,13.1%
O=c1cc(-c2ccc(O)cc2)oc2cc(O)c([C@@H]3O[C@H](CO)[C@@H](O)[C@H](O)[C@H]3O[C@@H]3O[C@H](CO)[C@@H](O)[C@H](O)[C@H]3O)c(O)c12 [Meloside A],229E Inhibition rate,,56.2%
O=C(/C=C/c1ccc(O)c(O)c1)O[C@H]1[C@H](O)C[C@](O)(C(=O)O)C[C@H]1O [Cryptochlorogenic acid],229E Inhibition rate,,7.4%
"O=C(CO)[C@@H](O)[C@H](O)[C@@H](O)CO [(3S,4R,5S)-1,3,4,5,6-Pentahydroxyhexan-2-one]",229E Inhibition rate,,8.7%
CO[C@@H]1[C@H](O)CC[C@]2(CO2)[C@H]1[C@@]1(C)O[C@@H]1CC=C(C)C [Fumagillol],229E Inhibition rate,,12.4%
O=C(O)/C=C/C=C/c1ccccc1 [Cinnamylideneacetic acid],229E Inhibition rate,,11.1%
C=C1CCC[C@]2(C)C[C@]3(O)OC(=O)C(C)=C3C[C@@H]12 [Atractylenolide III],229E Inhibition rate,,24%
O=c1c(O[C@@H]2O[C@@H](CO)[C@H](O)[C@H]2O)c(-c2ccc(O)c(O)c2)oc2cc(O)cc(O)c12 [Avicularin],229E Inhibition rate,,13.3%
C=C1[C@H]2C[C@H]2[C@]2(C)Cc3occ(C)c3[C@H](O)[C@@H]12 [Lindenenol],229E Inhibition rate,,28.5%
O[C@]12CO[C@H](c3ccc4c(c3)OCO4)[C@H]1CO[C@@H]2c1ccc2c(c1)OCO2 [Paulownin],229E Inhibition rate,,16.7%
CC(C)=CCC[C@@](C)(O)[C@H]1CC[C@]2(C)[C@@H]1[C@H](O)C[C@@H]1[C@@]3(C)CC[C@H](O[C@@H]4O[C@H](CO)[C@@H](O)[C@H](O)[C@H]4O[C@@H]4O[C@H](CO)[C@@H](O)[C@H](O)[C@H]4O)C(C)(C)[C@@H]3CC[C@]12C [(20R)-Ginsenoside Rg3],229E Inhibition rate,,21.4%
C[C@@H]1O[C@@H](O[C@H]2[C@H](O[C@H]3CC[C@@]4(C)[C@@H](CC[C@]5(C)[C@@H]4CC=C4[C@@H]6CC(C)(C)CC[C@]6(C(=O)O)CC[C@]45C)[C@]3(C)CO)OC[C@H](O[C@@H]3O[C@H](CO)[C@@H](O)[C@H](O)[C@H]3O)[C@@H]2O)[C@H](O)[C@H](O)[C@H]1O [Pulsatilla saponin D],229E Inhibition rate,,3.9%
CC(=O)N[C@H](C(=O)O)C(C)C [Acetylvaline],229E Inhibition rate,,17.3%
"O=C(O)Cc1ccc(O)c(O)c1 [3,4-Dihydroxybenzeneacetic acid]",229E Inhibition rate,,39.5%
CCC(C)C(=O)C(=O)O (centres unmarked) [3-Methyl-2-oxovaleric acid],229E Inhibition rate,,37.4%
CC1=CC(=O)c2ccccc2C1=O [Menadione],229E Inhibition rate,,8.7%
C=C(CC[C@@H](C(=O)O)[C@H]1[C@H](O)C[C@@]2(C)C3=C(CC[C@]12C)[C@@]1(C)CC[C@H](OC(C)=O)C(C)(C)[C@@H]1CC3)C(C)C [Pachymic acid],229E Inhibition rate,,14.2%
Cc1ncccc1O [3-Hydroxy-2-methylpyridine],229E Inhibition rate,,20.2%
COc1cc(-c2oc3cc(O[C@@H]4O[C@H](CO)[C@@H](O)[C@H](O)[C@H]4O)cc(O)c3c(=O)c2O)ccc1O [Brassicin],229E Inhibition rate,,9.2%
CC(C)=CCC/C(C)=C\CO [Nerol],229E Inhibition rate,,8.9%
OC[C@H]1O[C@H](O[C@H]2O[C@H](CO)[C@@H](O)[C@H](O)[C@H]2O)[C@H](O)[C@@H](O)[C@@H]1O [D-(+)-Trehalose dihydrate],229E Inhibition rate,"229E Inhibition rate, 24 h",12.4%
C/C=C/c1ccc(O)c(OC)c1 [Isoeugenol],229E Inhibition rate,,10.1%
COc1cc(C(C)=O)cc(OC)c1O [Acetosyringone],229E Inhibition rate,,18.9%
C[C@H](CC(=O)O)[C@H]1CC[C@H]2[C@@H]3[C@H](O)C[C@@H]4C[C@H](O)CC[C@]4(C)[C@H]3C[C@H](O)[C@]12C [Norcholic acid],229E Inhibition rate,,0%
CCC(O)CC [3-Pentanol],229E Inhibition rate,,19%
OC[C@H]1O[C@@H](O[C@@H]2OC=C[C@H]3[C@H](O)[C@@H]4O[C@]4(CO)[C@@H]23)[C@H](O)[C@@H](O)[C@@H]1O [Catalpol],229E Inhibition rate,,10.1%
COc1cc2c3cc1Oc1c(OC)c(OC)cc4c1[C@@H](Cc1ccc(O)c(c1)Oc1ccc(cc1)C[C@@H]3N(C)CC2)N(C)CC4 [Berbamine],229E Inhibition rate,"229E Inhibition rate, 24 h",5%
C=C1C=CC(C(C)C)CC1 (stereo not drawn) [β-Phellandrene],229E Inhibition rate,,51.8%
CCCCCC(C)O (centres unmarked) [2-Heptanol],229E Inhibition rate,,36.9%
O=c1c(O)c(-c2ccc(O)c(O)c2)oc2cc(O)ccc12 [Fisetin],229E Inhibition rate,,43.1%
CC1(C)CC[C@]2(C(=O)O)[C@H](O)C[C@]3(C)C(=CC[C@@H]4[C@@]5(C)C[C@H](O)[C@H](O)C(CO)(CO)[C@@H]5CC[C@]43C)[C@@H]2C1 [Platicodigenin],229E Inhibition rate,,5.1%
COc1cc2c(c(OC)c1OC)-c1c3cc4c(c1OC[C@@H](C)[C@@](C)(O)C(=O)O[C@@H]2[C@@](C)(O)[C@@H](C)C3)OCO4 [Gomisin D],229E Inhibition rate,,19.4%
COc1ccc(CC2c3cc(OC)c(OC)cc3CCN2C)cc1OC (racemic) [DL-Laudanosine],229E Inhibition rate,,36.8%
CCCCOC(=O)/C=C\C(=O)OCCCC [Dibutyl maleate],229E Inhibition rate,,0%
O=c1oc2cc(O)ccc2c2cc(O)c(O)cc12 [Urolithin C],229E Inhibition rate,,16.1%
CC[C@@]1(O)C(=O)OCc2c1cc1n(c2=O)Cc2cc3c([N+](=O)[O-])cccc3nc2-1 [Rubitecan],229E Inhibition rate,,5.6%
CCCCCCC[C@H](O)CC(=O)CCc1ccc(O)c(OC)c1 [8-Gingerol],229E Inhibition rate,,13.3%
COc1ccc2ccc(=O)oc2c1 [Herniarin],229E Inhibition rate,,11.6%
OC[C@H]1O[C@@H]2O[C@H]3[C@H](O)[C@@H](O)[C@@H](O[C@H]4[C@H](O)[C@@H](O)[C@@H](O[C@H]5[C@H](O)[C@@H](O)[C@@H](O[C@H]6[C@H](O)[C@@H](O)[C@@H](O[C@H]7[C@H](O)[C@@H](O)[C@@H](O[C@H]1[C@H](O)[C@H]2O)O[C@@H]7CO)O[C@@H]6CO)O[C@@H]5CO)O[C@@H]4CO)O[C@@H]3CO [α-Cyclodextrin],229E Inhibition rate,,0%
C[C@@H]1CC[C@]2(C(=O)O[C@@H]3O[C@H](CO)[C@@H](O)[C@H](O)[C@H]3O)CC[C@]3(C)C(=CC[C@@H]4[C@@]5(C)CC[C@H](O)[C@](C)(C(=O)O)[C@@H]5CC[C@]43C)[C@@H]2[C@]1(C)O [Ilexsaponin A],229E Inhibition rate,,58.5%
"CC(=O)CC(=O)CCC(=O)O [4,6-Dioxoheptanoic acid]",229E Inhibition rate,,4.2%
Oc1cc(O)c2cc(O)c(-c3cc(O)c(O)c(O)c3)[o+]c2c1 [Delphinidin (chloride)],229E Inhibition rate,,13.7%
C[C@H]1[C@H](C)CC[C@]2(C(=O)O)CC[C@]3(C)C(=CC[C@@H]4[C@@]5(C)CCC(=O)C(C)(C)[C@@H]5CC[C@]43C)[C@H]12 [Ursonic acid],229E Inhibition rate,,4.7%
CCOC(=O)CC(C)O (centres unmarked) [Ethyl 3-hydroxybutyrate],229E Inhibition rate,,11.8%
CC(=O)[C@@]1(O)CC[C@H]2[C@@H]3CC=C4CC(O)CC[C@]4(C)[C@H]3CC[C@@]21C (some centres unmarked) [17a-Hydroxypregnenolone],229E Inhibition rate,,5.8%
O=C(O)c1ccc2c(c1)C(=O)c1ccccc1C2=O [Anthraquinone-2-carboxylic acid],229E Inhibition rate,,32.8%
CC(=O)O[C@@H]1C[C@@]23C[C@@]24CC[C@H](O[C@@H]2OC[C@@H](O)[C@H](O)[C@H]2O)C(C)(C)[C@@H]4CC[C@H]3[C@]2(C)C[C@@H]3O[C@]4(C[C@@H](C)[C@@H]3[C@@]12C)OC[C@@]1(C)O[C@@H]41 [26-Deoxyactein],229E Inhibition rate,,30.8%

# Among those listed so far, 2 contain a carbonyl joined to an NH by a bond outside any ring.
compound,measurement,setting,value
C[C@H](CCC(=O)NCC(=O)O)[C@H]1CC[C@H]2[C@@H]3[C@H](O)C[C@@H]4C[C@H](O)CC[C@]4(C)[C@H]3C[C@H](O)[C@]12C [Glycocholic acid (hydrate)],229E Inhibition rate,"229E Inhibition rate, 24 h",4.1%
CC(=O)N[C@H](C(=O)O)C(C)C [Acetylvaline],229E Inhibition rate,,17.3%

# Reprinted at random: 2 records from the list
compound,measurement,setting,value
C/C=C/c1cc(OC)c2c(c1)[C@@H](C)[C@H](c1ccc3c(c1)OCO3)O2 [Licarin B],229E Inhibition rate,,8.7%
CCOC(=O)CC(C)O (centres unmarked) [Ethyl 3-hydroxybutyrate],229E Inhibition rate,,11.8%
